In publication PMC12724372:
These are yes or no findings as the source states them, for the method shown. Binding seen in cells or lysates may run through a third protein. Here binding means that the protein was enriched with, or labelled near, the bait; the list need not be complete.

Protein sequences, listed by entry. Tags and fused reporters are not part of them.
UniProt P07355: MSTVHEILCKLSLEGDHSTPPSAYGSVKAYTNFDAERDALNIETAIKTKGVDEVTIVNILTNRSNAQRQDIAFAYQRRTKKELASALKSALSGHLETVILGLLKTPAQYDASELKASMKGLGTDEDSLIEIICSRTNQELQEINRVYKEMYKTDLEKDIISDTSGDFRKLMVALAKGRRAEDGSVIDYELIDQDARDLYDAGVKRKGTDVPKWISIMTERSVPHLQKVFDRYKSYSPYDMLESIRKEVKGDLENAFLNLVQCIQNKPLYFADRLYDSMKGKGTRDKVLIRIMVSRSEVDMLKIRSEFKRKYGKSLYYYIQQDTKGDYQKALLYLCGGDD
UniProt P35579: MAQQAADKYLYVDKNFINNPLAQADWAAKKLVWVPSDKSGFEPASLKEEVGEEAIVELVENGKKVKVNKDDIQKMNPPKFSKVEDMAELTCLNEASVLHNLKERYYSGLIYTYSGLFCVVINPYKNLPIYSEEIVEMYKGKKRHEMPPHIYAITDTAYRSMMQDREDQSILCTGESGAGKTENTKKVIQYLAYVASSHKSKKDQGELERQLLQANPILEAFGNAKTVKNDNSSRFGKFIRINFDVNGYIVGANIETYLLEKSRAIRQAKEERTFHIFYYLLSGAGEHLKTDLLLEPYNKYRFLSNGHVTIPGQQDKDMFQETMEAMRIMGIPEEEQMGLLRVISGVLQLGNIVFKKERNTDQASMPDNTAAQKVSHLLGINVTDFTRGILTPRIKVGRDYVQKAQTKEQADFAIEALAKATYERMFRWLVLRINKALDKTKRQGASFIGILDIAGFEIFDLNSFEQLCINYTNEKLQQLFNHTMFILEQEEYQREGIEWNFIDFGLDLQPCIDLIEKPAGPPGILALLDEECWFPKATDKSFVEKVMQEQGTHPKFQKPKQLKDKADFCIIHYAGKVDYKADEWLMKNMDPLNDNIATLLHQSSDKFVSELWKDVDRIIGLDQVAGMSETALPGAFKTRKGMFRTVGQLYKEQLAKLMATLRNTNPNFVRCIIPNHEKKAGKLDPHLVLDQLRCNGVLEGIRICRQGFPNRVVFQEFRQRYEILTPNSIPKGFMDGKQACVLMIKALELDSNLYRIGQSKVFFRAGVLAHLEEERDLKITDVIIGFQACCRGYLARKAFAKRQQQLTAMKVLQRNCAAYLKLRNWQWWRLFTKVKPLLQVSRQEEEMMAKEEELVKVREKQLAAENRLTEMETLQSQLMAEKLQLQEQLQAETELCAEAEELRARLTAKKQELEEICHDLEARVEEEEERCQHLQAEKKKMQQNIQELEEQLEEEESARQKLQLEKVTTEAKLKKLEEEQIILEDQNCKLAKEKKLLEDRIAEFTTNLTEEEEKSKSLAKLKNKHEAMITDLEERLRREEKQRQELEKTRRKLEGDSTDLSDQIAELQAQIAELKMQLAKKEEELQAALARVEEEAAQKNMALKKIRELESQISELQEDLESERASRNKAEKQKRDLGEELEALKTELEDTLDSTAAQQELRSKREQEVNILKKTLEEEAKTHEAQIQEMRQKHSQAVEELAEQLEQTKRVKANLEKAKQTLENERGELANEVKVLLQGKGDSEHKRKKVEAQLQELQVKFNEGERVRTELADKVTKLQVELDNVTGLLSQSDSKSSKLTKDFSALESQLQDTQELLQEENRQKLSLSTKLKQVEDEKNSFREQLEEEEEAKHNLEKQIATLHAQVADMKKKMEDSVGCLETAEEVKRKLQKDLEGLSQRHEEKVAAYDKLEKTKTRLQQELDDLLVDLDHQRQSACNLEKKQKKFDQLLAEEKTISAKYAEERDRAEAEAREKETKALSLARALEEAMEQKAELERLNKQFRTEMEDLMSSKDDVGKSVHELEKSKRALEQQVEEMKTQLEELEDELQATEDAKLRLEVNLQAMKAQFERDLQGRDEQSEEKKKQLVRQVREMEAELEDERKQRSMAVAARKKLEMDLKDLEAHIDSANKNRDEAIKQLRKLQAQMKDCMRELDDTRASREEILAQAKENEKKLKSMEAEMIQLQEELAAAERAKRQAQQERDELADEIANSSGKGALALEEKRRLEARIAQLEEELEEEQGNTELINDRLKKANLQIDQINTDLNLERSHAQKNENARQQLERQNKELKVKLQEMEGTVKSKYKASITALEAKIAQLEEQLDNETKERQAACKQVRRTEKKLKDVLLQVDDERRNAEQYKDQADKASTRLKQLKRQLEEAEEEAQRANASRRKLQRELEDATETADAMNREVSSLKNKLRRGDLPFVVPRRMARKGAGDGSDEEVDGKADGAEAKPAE

Experiments:
[1] = biological target: reovirus T3D nonstructural protein σNS (expression plasmid) (reovirus T3D) (UniProt P03526); test: affinity purification with mass spectrometry; HeLa cells transfected with both σNS and µNS plasmids, 48 h post-transfection; same lysis buffer; σNS-specific or µNS-specific antibody, protein A Dynabeads; MALDI-ToF MS
[2] = biological target: reovirus T3D nonstructural protein σNS (expression plasmid) (reovirus T3D) (UniProt P03526); test: affinity purification with mass spectrometry; HeLa cells transfected with one plasmid only (T3D σNS alone or µNS alone), 48 h post-transfection; same lysis buffer; σNS-specific or µNS-specific antibody, protein A Dynabeads; MALDI-ToF MS

With annexin A2 (from UniProt P07355 1-339) the binding [1] was “binds” and the binding [2] was “binds”.
In the case of myosin-9 (from UniProt P35579 1-1960), the binding [1] is reported as “binds” and the binding [2] is reported as “binds”.
